# Measured values published in PubChem BioAssay AID1488 (Vanderbilt High Throughput Screening Facility, 2009).
# Chains of the proteins cited; added tags and fusions are not shown. Lines headed by an entry give the natural chain unless they say otherwise; changes in a name come on top.
# UniProt P08482: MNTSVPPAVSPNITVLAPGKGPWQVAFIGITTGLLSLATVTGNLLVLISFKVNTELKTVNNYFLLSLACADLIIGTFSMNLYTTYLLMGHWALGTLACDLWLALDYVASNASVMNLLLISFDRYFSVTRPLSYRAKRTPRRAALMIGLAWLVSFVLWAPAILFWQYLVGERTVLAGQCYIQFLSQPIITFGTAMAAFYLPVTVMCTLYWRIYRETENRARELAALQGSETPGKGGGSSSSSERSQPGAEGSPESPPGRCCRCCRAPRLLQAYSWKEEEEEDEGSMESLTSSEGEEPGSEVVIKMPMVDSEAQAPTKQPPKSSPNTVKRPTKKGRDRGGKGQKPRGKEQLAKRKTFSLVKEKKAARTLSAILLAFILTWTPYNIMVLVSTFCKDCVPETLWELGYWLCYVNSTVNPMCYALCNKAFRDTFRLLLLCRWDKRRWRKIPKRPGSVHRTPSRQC
# About 310 (18%) of roughly 1,700 compounds were called active. The shares of active, inactive and inconclusive entries below differ from those in the screen.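 Rule for the calls: active = fluorescence change differs from the solvent-only DMSO control mean at a set confidence level in both duplicate runs; inconclusive = differs from solvent-only control mean in just one of two runs; inactive = the rest.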
# Target: Muscarinic acetylcholine receptor M1 (Rattus norvegicus) (UniProt P08482)
# Test: direct agonism at rat M1 receptor – CHO-M1 cells, Fluo-4 calcium, duplicate retest, confirmation (AID 1488);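 note: an EC20 dose of acetylcholine follows compound addition during the same imaging run; raw fluorescence intensity difference in instrument units with no normalization to controls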
# Conditions: Fluo-4 calcium fluorescence, agonist mode, at 10 µM, actives lie on both sides
row,Compound,fluorescence change (max-min)
1,O=C(O)C1CN2CCC1CC2 (stereo not given),active: 233
2,CN1CC=C2C(C#N)=C(N)C(C#N)(C#N)C(c3ccncc3)C2C1 (stereo not given),active: 242
3,CN(C)c1ccc(N=Cc2c(O)n(CCC3=CCCCC3)c(=O)[nH]c2=O)cc1,inconclusive: -4.36
4,Cc1ccc(S(=O)(=O)Nc2cc(C(=O)N3CCC4(CC3)OCCO4)ccc2N2CCCCC2)cc1,inactive: -9.92
5,OC(COCc1ccc(Cl)cc1)CN1CC=C(c2ccccc2)CC1 (stereo not given),inactive: -6.81
6,CCCS(=O)(=O)N1CCCC(C(=O)N2CCC3(CC2)OCCO3)C1 (stereo not given),inactive: -6.59
7,CCCC(=O)OCC[N+](C)(C)C,active: 378
8,CCC(C)N1C(=O)NC(=O)C2(Cc3c(ccc4ccccc34)N(C)C2)C1=O (stereo not given),inconclusive: -21.9
9,Cc1cc2c(C(F)(F)F)cc(=O)oc2c2c1NCCC2,active: 1310
10,CC(=NCCCN1CCOCC1)c1c(O)[nH]c(=O)[nH]c1=O,inconclusive: -24.1
11,C[C@H]1OC[C@@H](C[N+](C)(C)C)O1,active: 527
12,C=CCn1c(O)c(C=Nc2ccc(N(CC)CC)cc2)c(=O)[nH]c1=O,inactive: 15.4
13,COc1ccc2c(c1)c(C(=O)CN1CCN(C)CC1)c(C)n2Cc1ccccc1,inconclusive: -26.7
14,Cn1c2ccccc2c2c(C(=O)N3CCC4(CC3)OCCO4)cn(C3CCCC3)c(=O)c21,inactive: -4.01
15,O=C(c1cc(-c2cccnc2)nc2ccc(Cl)cc12)N1CCC2(CC1)OCCO2,active: -35.2
16,CCNCC1(c2ccc(OC)c(OC)c2)CCCC1,inactive: -7.68
17,CCC(=NCc1ccc2c(c1)OCO2)c1c(O)n(C)c(=O)n(C)c1=O,inactive: 11.8
18,Cn1nc(-c2ccc(OCC(=O)N3CCN(Cc4ccccc4)CC3)cc2)c2ccccc2c1=O,inconclusive: -22.8
19,Cn1c2ccccc2c2c(C(=O)N3CCC4(CC3)OCCO4)cn(C3CCCCC3)c(=O)c21,inactive: -13.7
20,Cc1ccc(C(=O)C2CN3CCC2CC3)cc1 (stereo not given),inactive: -18

# Some of these compounds in order of SMILES length, descending.
row,Compound,fluorescence change (max-min)
19,Cn1c2ccccc2c2c(C(=O)N3CCC4(CC3)OCCO4)cn(C3CCCCC3)c(=O)c21,inactive: -13.7
17,CCC(=NCc1ccc2c(c1)OCO2)c1c(O)n(C)c(=O)n(C)c1=O,inactive: 11.8
9,Cc1cc2c(C(F)(F)F)cc(=O)oc2c2c1NCCC2,active: 1310
11,C[C@H]1OC[C@@H](C[N+](C)(C)C)O1,active: 527
16,CCNCC1(c2ccc(OC)c(OC)c2)CCCC1,inactive: -7.68
